# Over roughly 33,000 sequences, “E-score (-0.5 to 0.5)” has its median near -0.015; the highest 2% begin near 0.3. The list shows a part of the results.
# Target: T1, Abf1 (UniProt P14164)
# T1 sequence: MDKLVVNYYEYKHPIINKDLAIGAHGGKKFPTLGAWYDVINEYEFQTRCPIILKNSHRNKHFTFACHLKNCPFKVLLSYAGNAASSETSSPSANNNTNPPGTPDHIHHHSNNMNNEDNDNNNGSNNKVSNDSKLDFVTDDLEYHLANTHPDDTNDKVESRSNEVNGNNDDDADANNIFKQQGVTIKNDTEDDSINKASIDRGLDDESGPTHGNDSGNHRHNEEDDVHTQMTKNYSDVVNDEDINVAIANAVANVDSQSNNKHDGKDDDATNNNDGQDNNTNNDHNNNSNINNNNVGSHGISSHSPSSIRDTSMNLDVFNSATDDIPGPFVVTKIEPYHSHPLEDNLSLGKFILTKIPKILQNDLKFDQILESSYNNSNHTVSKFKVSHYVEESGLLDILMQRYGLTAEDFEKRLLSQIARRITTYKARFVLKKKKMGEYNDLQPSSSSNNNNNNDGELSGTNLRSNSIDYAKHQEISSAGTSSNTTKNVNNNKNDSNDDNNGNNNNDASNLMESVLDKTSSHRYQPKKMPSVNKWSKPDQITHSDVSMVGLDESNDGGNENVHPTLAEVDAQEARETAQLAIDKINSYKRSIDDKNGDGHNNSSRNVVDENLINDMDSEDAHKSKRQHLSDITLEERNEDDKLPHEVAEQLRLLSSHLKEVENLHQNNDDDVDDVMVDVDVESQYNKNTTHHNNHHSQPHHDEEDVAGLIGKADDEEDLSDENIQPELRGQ
# Assay: PBM E-score (8-mer binding enrichment) (E-score (-0.5 to 0.5)); higher = stronger / more preferred TF binding
# Settings: protein concentration: 200 nM; construct: GST-full length
# Procedure, shortened: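 Detection of bound protein used fluorescent anti-GST, with scans normalised by masliner. The proteins were GST-tagged yeast transcription factors applied at about 100-200 nM to universal all-10-mer Agilent arrays made double-stranded by primer extension. Each ungapped eight-base word, pooled with its reverse complement, was scored with an E-score from the Universal PBM Analysis Suite.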
row,Sequence,PBM E-score
1,CACACCAC,-0.0463
2,TACGTTCA,0.166
3,CAACGTGA,0.181
4,ATGATGCG,0.104
5,CCGCGCCG,0.00761
6,CCCGAGTC,-0.128
7,ATTGATCG,0.114
8,ATGGCAGA,0.079
9,AAACTGCG,-0.119
10,ATGCGCGG,-0.0091
11,GTTTGTTA,0.0326
12,ATCCAAAG,0.086
13,CGCCGCCG,-0.223
14,AAGGGGGG,-0.462
15,ACTAGGGC,-0.166
16,CAATCGTA,0.216
17,GTCCTAAC,0.201
18,CACAGCGC,-0.107
19,CAATTTCA,0.0575
20,AAAATACG,0.0051
21,CGGTCTAG,0.0644
22,GGAGGGCA,-0.214
23,TACTGGAA,0.115
24,GACTCTAC,-0.175

row,Sequence,PBM E-score
1,CAGTACTG,-0.137
2,ATGGATGC,-0.0845
3,ATTAACCG,0.0444
4,ACTCCATC,0.0155
5,AGTGTCAG,-0.234
6,AAGTTAGG,-0.0273
7,CTTAGGGA,0.0613
8,ACTCGTCA,0.0988
9,CCCCAACG,-0.0545
10,CGAGTAAC,0.176
11,ACTTCCCC,-0.123
12,TTCGACAA,0.00117
13,CTAGCACA,-0.185
14,ACGTGCAT,0.099
15,CAGCACAC,-0.247
16,ACAACAAG,0.0411
17,GTGTATCA,0.178
18,GGACCCTA,-0.301
19,GCTGCGGA,-0.0981
20,AGTGTCTC,-0.0718
21,CCGTTTAA,0.266
22,AATCCTCG,-0.221
23,ACCAGTTA,0.035
24,CGCTGTCA,-0.0219

# 28 successive records already listed, quoted:
row,Sequence,PBM E-score
18,CACAGCGC,-0.107
19,CAATTTCA,0.0575
20,AAAATACG,0.0051
21,CGGTCTAG,0.0644
22,GGAGGGCA,-0.214
23,TACTGGAA,0.115
24,GACTCTAC,-0.175
1,CAGTACTG,-0.137
2,ATGGATGC,-0.0845
3,ATTAACCG,0.0444
4,ACTCCATC,0.0155
5,AGTGTCAG,-0.234
6,AAGTTAGG,-0.0273
7,CTTAGGGA,0.0613
8,ACTCGTCA,0.0988
9,CCCCAACG,-0.0545
10,CGAGTAAC,0.176
11,ACTTCCCC,-0.123
12,TTCGACAA,0.00117
13,CTAGCACA,-0.185
14,ACGTGCAT,0.099
15,CAGCACAC,-0.247
16,ACAACAAG,0.0411
17,GTGTATCA,0.178
18,GGACCCTA,-0.301
19,GCTGCGGA,-0.0981
20,AGTGTCTC,-0.0718
21,CCGTTTAA,0.266

# Continued:

row,Sequence,PBM E-score
1,ATATGGCA,0.0158
2,CACCCACG,0.262
3,GCTGCCAA,-0.152
4,GATGTTGC,0.114
5,ACAGACTC,-0.304
6,CACACAGG,-0.154
7,GTTCTTCA,0.117
8,AAATCGTA,0.267
9,ATGGCAAC,0.0541
10,GAATGGTA,0.0616
11,GTGTGTGA,0.189
12,AGTTCTTG,0.0398
13,CACTGCAC,0.0334
14,ATGGTAAA,0.0326
15,CGGAATAA,-0.274
16,AAGATCGT,0.332
17,CTTTTTAC,0.136
18,AAAGATCC,0.00287
19,AGGTTCCG,0.0891
20,CTCTTTTA,-0.0551
21,CAGGGTCG,-0.234
22,CCCGGATC,-0.174
23,TGCACAAA,-0.105
24,AGCCATAC,0.00148

row,Sequence,PBM E-score
1,ATCCTTGC,-0.28
2,AACCATTG,-0.158
3,CAGAATGA,0.181
4,GAAATGAA,0.164
5,CCAGAACC,-0.0419
6,CCAAAGCA,-0.0169
7,AATTACCC,0.0522
8,AGCTTGGG,-0.143
9,GGTTTGCA,-0.0592
10,CGACGAAG,0.357
11,GTGTAGAA,0.114
12,CTATAGAC,-0.0763
13,CCCTAGCA,-0.289
14,GCTCTGCC,-0.314
15,ACTACCTA,0.0953
16,CATTGAGA,0.0238
17,GGATTCCC,-0.217
18,CAGCGTCA,-0.0771
19,CCAGGTCA,-0.0403
20,AGCAAACA,-0.0309
21,GGGTTAAC,-0.0685
22,CCTCTTAC,-0.233

# From the supplement of paper PMC3334620
